{"source": "patent US11905251B1", "about": "“1-cyclopropyl-6-fluoro-7-(4-(2-hydroxy-3-(naphthalen-2-yloxy)propylpiperazin-1-yl)-4-oxo-1,4-dihydroquinoline-3-carboxylic acid as an eco-friendly insecticidal agent against Spodoptera littoralis (boisd.)” (priority 2023, dated 2024)", "test_system": "Spodoptera littoralis (Boisd.) 2nd and 4th instar larvae", "experiment": "Insecticidal bioassay screening (castor leaf dip, larval mortality)", "assay_type": "in vivo", "conditions": "after 72 h of treatment, regression line slope", "protocol": "Five concentrations (200, 100, 50, 25, 12.5 ppm) were designed for this synthetic compound and the reference fenoxycarb compound as the dynamic ingredients based on ppm via diluting the commercial formulation.\nIn this experiment, castor leaves are immersed in each of the previously prepared concentrations of the components for 10 seconds and then left to dry for 60 minutes. Larvae of the second and fourth instars of each checked strain are prepared with treated leaves in gauze-covered glass containers for 72 hrs. An untreated control is made in which leaves are dipped in triton x-100 and distilled water only. Then the preserved leaves were removed & fresh, untreated leaves were provided for 72 hours. Three replicates (10 larvae each) were checked for each concentration. Daily inspection was carried out for all treatments and mortality percentages were recorded 3 days (72 hours) after treatment. The average mortality percentage was corrected employing Abbott's formula. The corrected mortality rate for each of the previously synthesized compounds is statistically calculated according to Finney (1970). Through this rate, the corresponding concentration test lines (LDP lines) are assessed. Fifty and ninety percent mortality are determined, and the regression values for the checked products were previously evaluated.", "data": [{"compound": "O=C(O)c1cn(C2CC2)c2cc(N3CCN(CC(O)COc4ccc5ccccc5c4)CC3)c(F)cc2c1=O", "note": "(centres unmarked) [Compound 7]", "values": [{"measurement": "slope ± SE", "setting": "2nd instar larvae of S. littoralis", "value": "0.279 ± 0.084"}, {"measurement": "slope ± SE", "setting": "4th instar larvae of S. littoralis", "value": "0.234 ± 0.0830"}]}]}
